# Assay results reported in ChEMBL document CHEMBL5465560, “Selectivity Literature for EUbOPEN Chemogenomic Library” (2024).
# Protein sequences, listed by entry. Tags and fused reporters are not part of them. Lines headed by an entry give the natural chain unless they say otherwise; changes in a name come on top.
# UniProt O00238: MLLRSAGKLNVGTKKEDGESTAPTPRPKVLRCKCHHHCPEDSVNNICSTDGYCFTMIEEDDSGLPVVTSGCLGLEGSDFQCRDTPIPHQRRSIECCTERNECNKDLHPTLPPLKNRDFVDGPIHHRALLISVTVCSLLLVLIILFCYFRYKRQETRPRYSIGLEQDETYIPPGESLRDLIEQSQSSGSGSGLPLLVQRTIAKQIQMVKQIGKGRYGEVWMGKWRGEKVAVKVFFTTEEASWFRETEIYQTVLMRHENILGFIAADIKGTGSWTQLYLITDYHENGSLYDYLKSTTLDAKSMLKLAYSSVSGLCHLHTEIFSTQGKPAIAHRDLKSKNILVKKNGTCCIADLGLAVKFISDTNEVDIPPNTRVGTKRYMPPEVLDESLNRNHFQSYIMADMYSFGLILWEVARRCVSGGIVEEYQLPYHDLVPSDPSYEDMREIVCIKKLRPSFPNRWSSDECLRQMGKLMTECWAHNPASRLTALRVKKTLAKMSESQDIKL
# UniProt P49336: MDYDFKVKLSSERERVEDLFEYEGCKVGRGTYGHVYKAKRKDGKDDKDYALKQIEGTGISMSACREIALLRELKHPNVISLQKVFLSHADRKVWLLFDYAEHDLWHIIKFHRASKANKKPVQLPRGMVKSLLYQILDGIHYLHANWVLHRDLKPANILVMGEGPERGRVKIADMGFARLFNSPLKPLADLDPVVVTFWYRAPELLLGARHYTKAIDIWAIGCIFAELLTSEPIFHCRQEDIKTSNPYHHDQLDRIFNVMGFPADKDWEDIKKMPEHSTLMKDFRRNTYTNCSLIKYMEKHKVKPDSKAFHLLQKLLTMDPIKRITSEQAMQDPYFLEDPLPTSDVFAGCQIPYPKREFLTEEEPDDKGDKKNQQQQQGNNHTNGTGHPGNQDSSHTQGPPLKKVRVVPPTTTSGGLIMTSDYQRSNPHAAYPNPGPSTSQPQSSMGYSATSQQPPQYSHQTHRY
# UniProt P48729: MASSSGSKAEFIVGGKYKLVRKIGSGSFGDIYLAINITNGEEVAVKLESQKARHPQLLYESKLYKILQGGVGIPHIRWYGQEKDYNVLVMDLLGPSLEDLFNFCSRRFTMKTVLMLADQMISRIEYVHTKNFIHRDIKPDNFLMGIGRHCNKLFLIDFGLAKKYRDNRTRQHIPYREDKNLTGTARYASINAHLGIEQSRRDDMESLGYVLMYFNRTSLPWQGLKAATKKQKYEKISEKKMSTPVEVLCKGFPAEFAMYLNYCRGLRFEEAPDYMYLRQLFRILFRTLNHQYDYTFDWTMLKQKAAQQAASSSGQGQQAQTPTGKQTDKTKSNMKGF
# UniProt P19525: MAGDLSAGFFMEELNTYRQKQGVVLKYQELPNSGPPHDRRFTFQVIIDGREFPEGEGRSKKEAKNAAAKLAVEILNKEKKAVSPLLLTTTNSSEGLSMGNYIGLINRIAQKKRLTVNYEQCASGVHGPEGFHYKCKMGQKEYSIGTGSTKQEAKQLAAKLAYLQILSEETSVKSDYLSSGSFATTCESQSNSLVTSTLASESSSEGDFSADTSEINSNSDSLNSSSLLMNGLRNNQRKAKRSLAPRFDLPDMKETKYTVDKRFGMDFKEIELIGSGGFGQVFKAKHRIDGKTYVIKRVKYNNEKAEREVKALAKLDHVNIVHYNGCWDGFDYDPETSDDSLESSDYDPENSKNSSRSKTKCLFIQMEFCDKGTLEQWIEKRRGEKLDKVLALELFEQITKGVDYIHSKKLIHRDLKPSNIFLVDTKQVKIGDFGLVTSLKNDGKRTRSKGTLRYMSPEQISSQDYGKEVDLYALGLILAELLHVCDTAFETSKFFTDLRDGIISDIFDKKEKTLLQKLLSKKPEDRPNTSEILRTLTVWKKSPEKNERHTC
# Hepatocyte growth factor receptor (Homo sapiens), P08581, UniProt P08581, whole entry M1250T: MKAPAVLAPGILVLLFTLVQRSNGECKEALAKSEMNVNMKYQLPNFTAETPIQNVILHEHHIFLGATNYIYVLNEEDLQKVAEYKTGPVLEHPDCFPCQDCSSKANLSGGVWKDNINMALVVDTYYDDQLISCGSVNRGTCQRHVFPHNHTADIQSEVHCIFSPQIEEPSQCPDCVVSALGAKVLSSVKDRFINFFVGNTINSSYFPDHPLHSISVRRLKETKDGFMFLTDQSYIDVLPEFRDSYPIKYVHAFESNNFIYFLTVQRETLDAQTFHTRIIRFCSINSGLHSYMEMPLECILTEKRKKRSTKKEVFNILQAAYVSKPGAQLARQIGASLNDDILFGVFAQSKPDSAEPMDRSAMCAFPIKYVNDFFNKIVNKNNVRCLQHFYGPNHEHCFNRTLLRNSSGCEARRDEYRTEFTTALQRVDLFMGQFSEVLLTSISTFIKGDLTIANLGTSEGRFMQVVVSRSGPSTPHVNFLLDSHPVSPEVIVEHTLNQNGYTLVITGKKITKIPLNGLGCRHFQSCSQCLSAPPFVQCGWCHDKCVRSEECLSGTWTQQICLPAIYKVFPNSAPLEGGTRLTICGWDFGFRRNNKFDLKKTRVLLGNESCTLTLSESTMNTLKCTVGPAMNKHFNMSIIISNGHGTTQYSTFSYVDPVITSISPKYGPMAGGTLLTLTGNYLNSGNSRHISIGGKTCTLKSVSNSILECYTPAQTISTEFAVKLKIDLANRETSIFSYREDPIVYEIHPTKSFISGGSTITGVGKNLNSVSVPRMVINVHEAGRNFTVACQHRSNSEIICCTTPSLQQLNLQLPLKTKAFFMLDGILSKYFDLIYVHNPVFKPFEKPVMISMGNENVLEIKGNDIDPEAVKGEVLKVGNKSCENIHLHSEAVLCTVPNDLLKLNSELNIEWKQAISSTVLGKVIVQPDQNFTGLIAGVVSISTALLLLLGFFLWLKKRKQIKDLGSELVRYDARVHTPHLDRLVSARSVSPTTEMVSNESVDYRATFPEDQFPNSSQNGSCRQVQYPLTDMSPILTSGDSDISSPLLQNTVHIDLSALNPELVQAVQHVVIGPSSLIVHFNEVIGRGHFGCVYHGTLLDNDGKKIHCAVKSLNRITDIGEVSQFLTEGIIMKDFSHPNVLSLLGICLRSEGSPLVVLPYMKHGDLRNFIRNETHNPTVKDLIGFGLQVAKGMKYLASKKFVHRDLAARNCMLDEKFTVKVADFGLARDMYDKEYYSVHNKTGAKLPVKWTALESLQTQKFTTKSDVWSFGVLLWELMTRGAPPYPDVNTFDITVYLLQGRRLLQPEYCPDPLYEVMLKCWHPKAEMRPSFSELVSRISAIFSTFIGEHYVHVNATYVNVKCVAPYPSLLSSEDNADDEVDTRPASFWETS
# UniProt Q9HBH9: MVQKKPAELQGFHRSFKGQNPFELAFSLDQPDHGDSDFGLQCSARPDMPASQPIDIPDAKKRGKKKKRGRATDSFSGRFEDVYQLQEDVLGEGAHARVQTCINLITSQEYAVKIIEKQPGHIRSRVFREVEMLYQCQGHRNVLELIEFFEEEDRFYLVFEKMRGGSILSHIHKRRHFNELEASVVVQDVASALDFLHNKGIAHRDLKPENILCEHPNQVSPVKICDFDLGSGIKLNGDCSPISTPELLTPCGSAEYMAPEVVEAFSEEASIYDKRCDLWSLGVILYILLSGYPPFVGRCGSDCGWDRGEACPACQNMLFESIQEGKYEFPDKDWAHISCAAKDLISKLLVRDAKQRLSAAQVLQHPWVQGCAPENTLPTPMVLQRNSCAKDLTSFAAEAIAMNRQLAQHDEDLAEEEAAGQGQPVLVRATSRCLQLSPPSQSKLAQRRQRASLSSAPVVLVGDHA
# UniProt Q9HC98: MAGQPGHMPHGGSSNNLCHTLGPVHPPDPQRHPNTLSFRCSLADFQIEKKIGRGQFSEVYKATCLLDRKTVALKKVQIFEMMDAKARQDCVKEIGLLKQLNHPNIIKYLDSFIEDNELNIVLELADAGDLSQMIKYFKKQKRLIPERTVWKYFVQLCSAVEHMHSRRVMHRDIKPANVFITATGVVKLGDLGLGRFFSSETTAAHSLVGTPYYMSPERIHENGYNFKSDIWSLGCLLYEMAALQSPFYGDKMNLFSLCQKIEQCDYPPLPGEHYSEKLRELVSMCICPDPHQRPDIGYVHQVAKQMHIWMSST
# UniProt P24723, whole entry: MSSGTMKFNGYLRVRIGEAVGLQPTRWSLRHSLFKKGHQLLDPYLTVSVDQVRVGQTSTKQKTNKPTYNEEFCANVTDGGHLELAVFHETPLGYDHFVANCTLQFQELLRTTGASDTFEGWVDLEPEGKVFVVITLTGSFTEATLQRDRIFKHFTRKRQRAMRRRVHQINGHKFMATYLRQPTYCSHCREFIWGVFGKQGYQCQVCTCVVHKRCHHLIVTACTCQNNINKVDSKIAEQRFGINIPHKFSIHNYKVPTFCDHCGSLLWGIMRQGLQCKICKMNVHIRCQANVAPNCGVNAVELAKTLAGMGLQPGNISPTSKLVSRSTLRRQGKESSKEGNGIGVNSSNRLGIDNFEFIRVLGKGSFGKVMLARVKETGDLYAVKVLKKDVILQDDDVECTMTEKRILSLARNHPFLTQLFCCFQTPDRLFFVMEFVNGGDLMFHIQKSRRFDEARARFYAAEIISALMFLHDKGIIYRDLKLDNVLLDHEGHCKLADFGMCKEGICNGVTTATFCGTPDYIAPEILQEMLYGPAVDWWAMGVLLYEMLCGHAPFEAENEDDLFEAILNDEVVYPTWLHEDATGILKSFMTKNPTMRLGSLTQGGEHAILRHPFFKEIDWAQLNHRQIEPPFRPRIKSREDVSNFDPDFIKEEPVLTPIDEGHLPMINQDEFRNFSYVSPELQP
# UniProt P23443: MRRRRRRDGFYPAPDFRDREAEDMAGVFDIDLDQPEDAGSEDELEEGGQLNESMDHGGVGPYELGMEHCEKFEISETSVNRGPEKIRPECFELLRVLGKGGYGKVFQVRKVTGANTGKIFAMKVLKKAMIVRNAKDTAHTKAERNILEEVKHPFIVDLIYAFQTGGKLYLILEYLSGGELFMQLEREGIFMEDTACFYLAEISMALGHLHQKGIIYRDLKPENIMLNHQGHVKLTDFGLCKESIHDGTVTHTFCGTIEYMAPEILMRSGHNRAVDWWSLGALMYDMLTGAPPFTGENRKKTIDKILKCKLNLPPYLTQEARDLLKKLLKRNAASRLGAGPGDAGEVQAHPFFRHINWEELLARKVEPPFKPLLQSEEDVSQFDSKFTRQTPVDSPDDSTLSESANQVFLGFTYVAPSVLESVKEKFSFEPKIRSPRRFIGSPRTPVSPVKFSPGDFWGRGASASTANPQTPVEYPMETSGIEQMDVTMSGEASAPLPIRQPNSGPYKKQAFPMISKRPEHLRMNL
# UniProt O75716, whole entry: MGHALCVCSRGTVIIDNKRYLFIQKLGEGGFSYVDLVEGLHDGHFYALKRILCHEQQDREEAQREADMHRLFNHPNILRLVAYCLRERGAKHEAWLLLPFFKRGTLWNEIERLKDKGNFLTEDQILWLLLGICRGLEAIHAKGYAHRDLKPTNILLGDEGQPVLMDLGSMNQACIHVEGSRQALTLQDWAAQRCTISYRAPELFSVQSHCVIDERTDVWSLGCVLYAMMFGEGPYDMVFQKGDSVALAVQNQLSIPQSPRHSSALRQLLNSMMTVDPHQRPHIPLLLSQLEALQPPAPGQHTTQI
# UniProt Q15208: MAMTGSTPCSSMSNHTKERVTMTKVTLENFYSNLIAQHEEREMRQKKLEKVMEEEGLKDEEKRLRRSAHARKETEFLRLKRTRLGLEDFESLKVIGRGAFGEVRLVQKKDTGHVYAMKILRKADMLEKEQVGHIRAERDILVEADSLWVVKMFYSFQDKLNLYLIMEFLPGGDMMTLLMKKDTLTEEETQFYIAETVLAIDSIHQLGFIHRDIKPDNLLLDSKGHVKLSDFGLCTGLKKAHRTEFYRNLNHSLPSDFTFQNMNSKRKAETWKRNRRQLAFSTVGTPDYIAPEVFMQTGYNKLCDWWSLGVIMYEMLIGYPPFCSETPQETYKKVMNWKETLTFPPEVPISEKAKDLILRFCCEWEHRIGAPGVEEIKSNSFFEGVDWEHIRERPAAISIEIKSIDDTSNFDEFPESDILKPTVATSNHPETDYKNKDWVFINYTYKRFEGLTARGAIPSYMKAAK
# UniProt P0C1S8: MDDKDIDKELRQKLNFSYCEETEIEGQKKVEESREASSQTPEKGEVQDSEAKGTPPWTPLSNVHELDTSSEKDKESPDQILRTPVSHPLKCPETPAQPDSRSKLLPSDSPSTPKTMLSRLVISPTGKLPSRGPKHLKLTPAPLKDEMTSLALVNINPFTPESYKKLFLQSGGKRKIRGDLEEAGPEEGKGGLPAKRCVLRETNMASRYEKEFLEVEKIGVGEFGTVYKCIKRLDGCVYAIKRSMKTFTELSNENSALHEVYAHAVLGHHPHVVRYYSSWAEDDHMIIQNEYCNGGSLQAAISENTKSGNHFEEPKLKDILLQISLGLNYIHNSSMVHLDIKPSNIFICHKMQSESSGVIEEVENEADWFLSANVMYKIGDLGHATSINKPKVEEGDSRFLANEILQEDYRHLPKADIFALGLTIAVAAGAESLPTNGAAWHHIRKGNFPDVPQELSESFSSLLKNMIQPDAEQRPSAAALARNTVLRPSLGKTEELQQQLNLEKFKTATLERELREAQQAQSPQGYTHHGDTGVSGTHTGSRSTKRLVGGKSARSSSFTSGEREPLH
# Experiments:
# Conditions in all cases: at 1 µM
# [1] = biological target: Activin receptor type-2B (Homo sapiens) (UniProt Q13705); assay: Selectivity interaction (KinomeScan (DiscoverX)) EUB0001581a ACVR2B
# [2] = biological target: Activin receptor type-1-like (Homo sapiens) (UniProt P37023); assay: Selectivity interaction (KinomeScan (DiscoverX)) EUB0001581a ACVRL1
# [3] = biological target: Tyrosine-protein kinase receptor UFO (Homo sapiens) (UniProt P30530); assay: Selectivity interaction (KinomeScan (DiscoverX)) EUB0001581a AXL
# [4] = biological target: Bone morphogenetic protein receptor type-1B (Homo sapiens, UniProt O00238); assay: Selectivity interaction (KinomeScan (DiscoverX)) EUB0001581a BMPR1B
# [5] = biological target: Tyrosine-protein kinase BTK (Homo sapiens, UniProt Q06187); assay: Selectivity interaction (KinomeScan (DiscoverX)) EUB0001581a BTK
# [6] = biological target: Cyclin-dependent kinase 8 (Homo sapiens, UniProt P49336); assay: Selectivity interaction (KinomeScan (DiscoverX)) EUB0001581a CDK8
# [7] = biological target: Casein kinase I isoform alpha (Homo sapiens, UniProt P48729); assay: Selectivity interaction (KinomeScan (DiscoverX)) EUB0001581a CSNK1A1
# [8] = biological target: Dual specificity tyrosine-phosphorylation-regulated kinase 1A (Homo sapiens, UniProt Q13627); assay: Selectivity interaction (KinomeScan (DiscoverX)) EUB0001581a DYRK1A
# [9] = biological target: Dual specificity tyrosine-phosphorylation-regulated kinase 2 (Homo sapiens) (UniProt Q92630); assay: Selectivity interaction (KinomeScan (DiscoverX)) EUB0001581a DYRK2
# [10] = biological target: Interferon-induced, double-stranded RNA-activated protein kinase (Homo sapiens) (UniProt P19525); assay: Selectivity interaction (KinomeScan (DiscoverX)) EUB0001581a EIF2AK2
# [11] = biological target: Ephrin type-A receptor 5 (Homo sapiens) (UniProt P54756); assay: Selectivity interaction (KinomeScan (DiscoverX)) EUB0001581a EPHA5
# [12] = biological target: Receptor tyrosine-protein kinase erbB-4 (Homo sapiens, UniProt Q15303); assay: Selectivity interaction (KinomeScan (DiscoverX)) EUB0001581a ERBB4
# [13] = biological target: Tyrosine-protein kinase Fgr (Homo sapiens) (UniProt P09769); assay: Selectivity interaction (KinomeScan (DiscoverX)) EUB0001581a FGR
# [14] = biological target: Interleukin-1 receptor-associated kinase 4 (Homo sapiens) (UniProt Q9NWZ3); assay: Selectivity interaction (KinomeScan (DiscoverX)) EUB0001581a IRAK4
# [15] = biological target: Mitogen-activated protein kinase kinase kinase 19 (Homo sapiens) (UniProt Q56UN5); assay: Selectivity interaction (KinomeScan (DiscoverX)) EUB0001581a MAP3K19
# [16] = tested on: Hepatocyte growth factor receptor (Homo sapiens), P08581 [M1250T]; assay: Selectivity interaction (KinomeScan (DiscoverX)) EUB0001581a MET
# [17] = biological target: MAP kinase-interacting serine/threonine-protein kinase 2 (Homo sapiens, UniProt Q9HBH9); assay: Selectivity interaction (KinomeScan (DiscoverX)) EUB0001581a MKNK2
# [18] = biological target: Serine/threonine-protein kinase Nek6 (Homo sapiens) (UniProt Q9HC98); assay: Selectivity interaction (KinomeScan (DiscoverX)) EUB0001581a NEK6
# [19] = biological target: Serine/threonine-protein kinase NLK (Homo sapiens) (UniProt Q9UBE8); assay: Selectivity interaction (KinomeScan (DiscoverX)) EUB0001581a NLK
# [20] = biological target: Cyclin-dependent kinase 15 (Homo sapiens) (UniProt Q96Q40); assay: Selectivity interaction (KinomeScan (DiscoverX)) EUB0001581a CDK15
# [21] = biological target: Phosphorylase b kinase gamma catalytic chain, liver/testis isoform (Homo sapiens) (UniProt P15735); assay: Selectivity interaction (KinomeScan (DiscoverX)) EUB0001581a PHKG2
# [22] = tested on: Phosphatidylinositol 4,5-bisphosphate 3-kinase catalytic subunit alpha isoform (Homo sapiens), P42336 [E545K]; assay: Selectivity interaction (KinomeScan (DiscoverX)) EUB0001581a PIK3CA
# [23] = biological target: Phosphatidylinositol 4,5-bisphosphate 3-kinase catalytic subunit beta isoform (Homo sapiens) (UniProt P42338); assay: Selectivity interaction (KinomeScan (DiscoverX)) EUB0001581a PIK3CB
# [24] = biological target: Serine/threonine-protein kinase PLK4 (Homo sapiens) (UniProt O00444); assay: Selectivity interaction (KinomeScan (DiscoverX)) EUB0001581a PLK4
# [25] = biological target: Protein kinase C eta type (Homo sapiens) (UniProt P24723); assay: Selectivity interaction (KinomeScan (DiscoverX)) EUB0001581a PRKCH
# [26] = biological target: cGMP-dependent protein kinase 2 (Homo sapiens) (UniProt Q13237); assay: Selectivity interaction (KinomeScan (DiscoverX)) EUB0001581a PRKG2
# [27] = biological target: Ribosomal protein S6 kinase beta-1 (Homo sapiens, UniProt P23443); assay: Selectivity interaction (KinomeScan (DiscoverX)) EUB0001581a RPS6KB1
# [28] = biological target: Serine/threonine-protein kinase SBK1 (Homo sapiens) (UniProt Q52WX2); assay: Selectivity interaction (KinomeScan (DiscoverX)) EUB0001581a SBK1
# [29] = biological target: SRSF protein kinase 1 (Homo sapiens, UniProt Q96SB4); assay: Selectivity interaction (KinomeScan (DiscoverX)) EUB0001581a SRPK1
# [30] = biological target: Serine/threonine-protein kinase 16 (Homo sapiens, UniProt O75716); assay: Selectivity interaction (KinomeScan (DiscoverX)) EUB0001581a STK16
# [31] = biological target: Serine/threonine-protein kinase 17A (Homo sapiens) (UniProt Q9UEE5); assay: Selectivity interaction (KinomeScan (DiscoverX)) EUB0001581a STK17A
# [32] = biological target: Serine/threonine-protein kinase 17B (Homo sapiens) (UniProt O94768); assay: Selectivity interaction (KinomeScan (DiscoverX)) EUB0001581a STK17B
# [33] = biological target: Serine/threonine-protein kinase 38 (Homo sapiens) (UniProt Q15208); assay: Selectivity interaction (KinomeScan (DiscoverX)) EUB0001581a STK38
# [34] = biological target: Serine/threonine-protein kinase TAO2 (Homo sapiens) (UniProt Q9UL54); assay: Selectivity interaction (KinomeScan (DiscoverX)) EUB0001581a TAOK2
# [35] = biological target: TRAF2 and NCK-interacting protein kinase (Homo sapiens) (UniProt Q9UKE5); assay: Selectivity interaction (KinomeScan (DiscoverX)) EUB0001581a TNIK
# [36] = biological target: Transient receptor potential cation channel subfamily M member 6 (Homo sapiens) (UniProt Q9BX84); assay: Selectivity interaction (KinomeScan (DiscoverX)) EUB0001581a TRPM6
# [37] = biological target: Ephrin type-B receptor 6 (Homo sapiens) (UniProt O15197)
# [38] = biological target: Rhodopsin kinase GRK7 (Homo sapiens) (UniProt Q8WTQ7)
# [39] = biological target: Wee1-like protein kinase 2 (Homo sapiens) (UniProt P0C1S8)
compound,measurement,setting,value
C[C@@H]1C[C@H](N)C[C@H](c2ccncc2NC(=O)c2ccc(F)c(-c3c(F)cccc3F)n2)C1,% of control,[1],90%
same,% of control,[2],77%
same,% of control,[3],97%
same,% of control,[4],100%
same,% of control,[5],98%
same,% of control,[6],97%
same,% of control,[7],97%
same,% of control,[8],70%
same,% of control,[9],100%
same,% of control,[10],89%
same,% of control,[11],100%
same,% of control,[12],100%
same,% of control,[13],100%
same,% of control,[14],100%
same,% of control,[15],100%
same,% of control,[16],81%
same,% of control,[17],100%
same,% of control,[18],100%
same,% of control,[19],100%
same,% of control,[20],100%
same,% of control,[21],100%
same,% of control,[22],80%
same,% of control,[23],38%
same,% of control,[24],100%
same,% of control,[25],89%
same,% of control,[26],100%
same,% of control,[27],100%
same,% of control,[28],100%
same,% of control,[29],100%
same,% of control,[30],90%
same,% of control,[31],100%
same,% of control,[32],100%
same,% of control,[33],100%
same,% of control,[34],76%
same,% of control,[35],100%
same,% of control,[36],100%
same,% of control,[37],96%
same,% of control,[38],96%
same,% of control,[39],96%
